As usually defined, the Kd is the concentration at which binding is half-saturated.

For assay [1], the target named is recombinant His-tagged HIV-1 gp120 ZM53M.PB12 (Clade C) (HIV-1 strain ZM53M.PB12).
Assay [2] addresses recombinant His-tagged HIV-1 gp120 SF162 (Clade B) (HIV-1 strain SF162, UniProt P19550 32-502).

B1: actinohivin (AH), wild type (other)
chain: ASVTIRNAQTGRLLDSNYNGNVYTLPANGGNYQRWTGPGDGTVRNAQTGRCLDSNYDGAVYTLPCNGGSYQKWLFYSNGYIQNVETGRVLDSNYNGNVYTLPANGGNYQKWYTG
For the molecule B1, the figures for the Kd in assay [1] and in assay [2] were 35.7 nM and 29.1 nM, respectively.

For the origin of these results see patent publication US20230174595A1 (UNIVERSITY OF LOUISVILLE RESEARCH FOUNDATION, published 2023).
